No constants are given. Whether binding was seen depends on the method and setting. Some binding calls cover weakened binding; strength is not graded here.
Target: nucleolin, 110 kDa, of UMR106-01 osteoblastic cultures (rat (endogenous in UMR106-01)) (UniProt P13383)
Assay: far-Western, overlay or dot blot; media, EDTA extracts and 8 M urea extracts of UMR106-01 cultures (+/-BGP, +/-AEBSF) resolved by SDS-PAGE, blotted onto PVDF, incubated with FAM-labeled peptide, fluorescence imager; bands identified by mass spectrometry and Edman sequencing; only the binder …

Sequences of proteins named here, by UniProt entry; tags and fusion partners are left off.
UniProt P13383: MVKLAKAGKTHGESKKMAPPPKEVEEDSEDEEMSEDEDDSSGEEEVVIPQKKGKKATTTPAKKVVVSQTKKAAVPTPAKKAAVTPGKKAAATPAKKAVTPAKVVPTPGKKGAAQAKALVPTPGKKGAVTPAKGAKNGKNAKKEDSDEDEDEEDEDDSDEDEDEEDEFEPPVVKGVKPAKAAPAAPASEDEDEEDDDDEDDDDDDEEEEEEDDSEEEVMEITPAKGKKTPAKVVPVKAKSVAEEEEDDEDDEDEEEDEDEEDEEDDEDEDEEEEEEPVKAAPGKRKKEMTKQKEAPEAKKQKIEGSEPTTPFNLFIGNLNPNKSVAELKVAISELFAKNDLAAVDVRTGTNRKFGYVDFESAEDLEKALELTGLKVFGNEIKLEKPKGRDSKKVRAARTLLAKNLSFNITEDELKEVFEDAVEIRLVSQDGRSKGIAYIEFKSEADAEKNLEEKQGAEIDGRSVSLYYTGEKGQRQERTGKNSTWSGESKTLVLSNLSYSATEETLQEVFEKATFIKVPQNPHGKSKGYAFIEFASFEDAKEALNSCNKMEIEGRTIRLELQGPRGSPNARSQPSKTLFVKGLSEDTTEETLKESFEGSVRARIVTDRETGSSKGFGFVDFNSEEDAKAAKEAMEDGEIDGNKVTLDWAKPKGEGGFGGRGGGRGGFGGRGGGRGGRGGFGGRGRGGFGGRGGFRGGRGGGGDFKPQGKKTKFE

binding: binds weakly
B1: FAM-labeled Col11a1 NTD “6b” exon-derived peptide 5 (peptide)
peptide: KKKSKMSTTPKSEKFASKKKKR
modifications: 6-carboxyfluorescein (FAM) on the N-terminus
